From article PMC5818345
Results are given in words; binding and its absence hold for the method and conditions named. In cells and extracts the contact can be indirect. Some results given as binding are weak or reduced against the parent protein; the word gives no strength.

Chains of the proteins cited; added tags and fusions are not shown.
UniProt Q62432: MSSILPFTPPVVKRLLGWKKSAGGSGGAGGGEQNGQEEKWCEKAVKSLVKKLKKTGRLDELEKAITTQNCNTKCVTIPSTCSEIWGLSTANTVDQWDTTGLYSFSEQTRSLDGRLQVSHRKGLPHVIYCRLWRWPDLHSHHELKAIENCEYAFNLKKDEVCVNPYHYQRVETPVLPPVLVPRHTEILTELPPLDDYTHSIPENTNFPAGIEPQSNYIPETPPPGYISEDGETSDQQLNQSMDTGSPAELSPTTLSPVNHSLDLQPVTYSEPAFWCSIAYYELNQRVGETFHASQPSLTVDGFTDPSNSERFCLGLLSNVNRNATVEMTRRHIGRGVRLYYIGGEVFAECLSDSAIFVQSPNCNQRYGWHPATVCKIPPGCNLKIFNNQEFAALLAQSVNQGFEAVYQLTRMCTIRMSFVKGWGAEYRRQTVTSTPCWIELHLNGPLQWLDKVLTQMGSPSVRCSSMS

Target: T1, regulator of G-protein Signaling 5 (UniProt O08850)
T1 sequence: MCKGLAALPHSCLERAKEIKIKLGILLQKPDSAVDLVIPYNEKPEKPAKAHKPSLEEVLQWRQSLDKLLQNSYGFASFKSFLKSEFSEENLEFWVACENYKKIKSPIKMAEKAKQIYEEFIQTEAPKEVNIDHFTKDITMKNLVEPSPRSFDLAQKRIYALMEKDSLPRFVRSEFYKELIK
Experiment: co-IP; co-immunoprecipitation followed by western-blotting, pericytes; with TGFβ or exposure to tumor microenvironment (TME)

Substance: Smad2 (from UniProt Q62432 1-467)
- binding: binds
